Laboratory results from PubChem BioAssay AID651664 (NMMLSC, 2012).
Fewer than 10 of roughly 1,800 compounds were called active.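 Rule for the calls: active = inhibition of granule release above a set limit; inactive = the rest.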 This is one part of the list.

Assay: inhibitors of lytic granule exocytosis, flow cytometry, TALL-104 cells, validation set (AID 651664)
Details: TALL-104 LAMP-1 externalization, at 15.2 µM, stronger effect = higher value

SMILES	inhibition
COc1ccc2c(CCN)c[nH]c2c1	inactive: 2.4%
O=C1C2CCN(CC2)C1Cc1ccc(OCCOc2ccccc2)cc1 (stereo not drawn)	inactive: 6.8%
Cc1ccc(OCC(=O)N2CCN(CC3CC4C=CC3C4)CC2)cc1 (stereo not drawn)	inactive: 0.4%
COCCCNC(=O)c1c(NC(=O)c2ccco2)n(Cc2ccccc2)c2nc3ccccc3nc12	inactive: -0.5%
O=C(c1cc(=O)[nH]c2ccc(Br)cc12)N1CCC2(CC1)OCCO2	inactive: -3.6%
CCCCOP(=O)(OCCCC)/C(C#N)=C(/C)O	inactive: 4.1%
COc1ccc(Cn2c(N)c(C(=O)NCc3ccco3)c3nc4ccccc4nc32)cc1OC	inactive: -2.6%
CCN1CC=C(c2c[nH]c3ccccc23)CC1	inactive: 4.8%
CCCN1CCC2(CC1)NC(CO)(CO)CO2	inactive: 1.2%
Cc1ccc(-n2c(-c3cccs3)nc3ccccc3c2=O)cc1	inactive: 1%
Cc1cc(NC(=O)COC(=O)c2c(C)nn(Cc3ccccc3)c2C)no1	inactive: 5.5%
Cc1ccc(-c2nc3ccc(Cl)cc3n2OC(=O)N(C)C)cc1	inactive: -1.1%
CCOC(=O)C1=C(C)N(C)C2(C)CC1c1ccccc1O2 (stereo not drawn)	inactive: 2.1%
C=CCn1c(O)c(C(C)=NCCCO)c(=O)[nH]c1=O	inactive: -5.1%
Cc1ccc2nc(N3CCC(C(=O)N4CCC5(CC4)OCCO5)CC3)sc2c1	inactive: -2.7%
COP(=O)(OC)C1(Nc2ccc(C)cc2)CCCCC1	inactive: -1.3%
CC(Cc1ccccc1)NC(=O)NC(C)Cc1ccccc1 (stereo not drawn)	inactive: -0.4%
Nc1c(C(=O)NCCN2CCOCC2)c2nc3ccccc3nc2n1Cc1ccco1	inactive: 1.8%
Cc1ccc(C(=O)C2CN3CCC2CC3)cc1 (stereo not drawn)	inactive: -2.9%
Cc1ccc(S(=O)(=O)N(C)CCCC(=O)N2CCN(c3ccccn3)CC2)cc1	inactive: 3.2%
Cc1cccc(N2C(=O)/C(=C/N3CCN(C(=O)c4ccco4)CC3)C(=O)NC2=S)c1	inactive: -2.5%
Cc1nn(Cc2ccccc2)c(C)c1C(=O)OCC(=O)NCc1ccco1	inactive: -1.6%

Filtered by structure: the compounds so far containing an aryl methoxy group (two)
SMILES	inhibition
COc1ccc2c(CCN)c[nH]c2c1	inactive: 2.4%
COc1ccc(Cn2c(N)c(C(=O)NCc3ccco3)c3nc4ccccc4nc32)cc1OC	inactive: -2.6%

More records.

SMILES	inhibition
CCOC(=O)c1ccc(NC(=O)c2c(O)[nH]c(=O)[nH]c2=O)cc1	inactive: -0.6%
CCOc1ccc(-n2c(O)c(C=Nc3ccc(N4CCOCC4)cc3)c(=O)[nH]c2=O)cc1	inactive: 0.2%
CN(C)C(=O)On1c(-c2ccccc2)nc2ccc(Cl)cc21	inactive: -1.5%
O=C(CF)NC(Nc1cccc2cccnc12)C(Cl)(Cl)Cl (stereo not drawn)	inactive: -0.5%
CCC(=O)Nc1ccc(N2CCN(CC)CC2)c(Cl)c1	inactive: -3.3%
Cc1ccccc1-n1c(O)c(C=NCCN2CCOCC2)c(=O)[nH]c1=O	inactive: 1.3%
CCN1CCC(O)(c2ccccc2)C(C(=O)c2ccccc2)C1 (stereo not drawn)	inactive: -3%
Cc1cccc(OCC(=O)N2CCN(Cc3ccncc3)CC2)c1	inactive: -3.4%
O=C1NC(=S)N(c2ccc(Cl)cc2)C(=O)/C1=C/N1CCN(C(=O)c2ccco2)CC1	inactive: -2.7%
CCCCCn1c(=O)c(C(=O)NCc2ccncc2)c(O)c2ccccc21	inactive: -2.3%
CCn1nc(-c2ccccc2)nc2c(=O)n(C)c(=O)nc1-2	inactive: -0.5%
Cc1ccc(-n2c(O)c(C=NCCN3CCOCC3)c(=O)[nH]c2=O)cc1	inactive: 1.3%
COC(=O)C(O)(c1c(C)[nH]c2ccccc12)C(F)(F)F (stereo not drawn)	inactive: -0.9%
CCN(CC)c1ccc(CN2CC=C(c3ccc(F)cc3)CC2)cc1	inactive: -2.4%
O[C@H]1C2CCC1C(N1CCCCC1)CC2 (stereo partly drawn)	inactive: 0.4%
CC(=Nc1ccc2c(c1)CCC2)c1c(O)n(C)c(=O)n(C)c1=O	inactive: -1.7%
CCCCc1nc2ccccc2c(=O)n1-c1ccccc1O	inactive: 10.4%
CCC(COC(=O)NC)NC(=O)Oc1ccccc1 (stereo not drawn)	inactive: -0.5%
COc1ccc(Br)cc1CN1CCN(C(=O)Cc2ccccc2)CC1	inactive: 5.6%
CC(C)c1cccc(C(C)C)c1OCCn1ccnc1	inactive: -2.2%
Cc1cccc(-n2c(O)c(C=NCCCN3CCOCC3)c(=O)[nH]c2=O)c1C	inactive: -5.6%
